The supplement of paper PMC7877785
± gives the uncertainty stated by the source. The uncertainty is large for many entries.

Assay: self-splicing fitness, log relative to wild type (ln ratio); higher = more splicing; Tetrahymena group I intron in knt gene, E. coli kanamycin selection, DiMSum; sequences stand for … in CUCUCU…GGAGGGAAAAGUUAUCAGGCAUGCACCUGGUAGCUAGUCUUUAAACCAAUAGAUUGCAUCGGUUUAAAAGGCAAGACCGUCAAAUUGCGGGAAAGGGGUCAACAGCCGUUCAGUACCAAGUCUCAGGGGAAACUUUGAGAUGGCCUUGCAAAGGGUAUGGUAAUAAGCUGACGGACAUGGUCCUAACCACGCAGCCAAGUCCUAAGUCAACAGAUCUUCUGUUGAUAUGGAUGCAGUUCACAGACUAAAUGUCGGUCGGGGAAGAUGUAUUCUUCUCAUAAGAUAUAGUCGGACCUCUCCUUAAUGGGAGCUAGCGGAUGAAGUGAUGCAACACUGGAGCCGCUGGGAACUAAUUUGUAUGCGAAAGUAUAUUGAUUAGUUUUGGAGUACUCGUGGUCG
Procedure, shortened: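 The eight P1ex-region nucleotides of an intron in the knt kanamycin-resistance gene on pET-22b(+) were all randomised and the library put into E. coli BL21(DE3). Six replicate transformations were grown overnight at 37°C or 30°C on LB agar with or without 25 μg/mL kanamycin, together with 100 μg/mL carbenicillin, 50 μM IPTG and 0.2% rhamnose. Colonies were pooled and amplicon-sequenced on an Illumina HiSeq 2500. Fitness from DiMSum is the error-weighted combination of wild-type-normalised replicate fold changes, kanamycin over none.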

Sequence	self-splicing fitness (ln) (37 °C)	self-splicing fitness (ln) (30 °C)
CUGGAGCAAUAUUACGUAUC	-3.19 ± 0.53	–
GUUUAGCAAUAUUACGGCCC	0.553 ± 0.63	–
UCAUAGCAAUAUUACGCUCU	-2.25 ± 0.56	-3.16 ± 0.65
GCAUAGCAAUAUUACGAAGU	-2.27 ± 0.51	–
CUGGAGCAAUAUUACGCCUC	–	-2.41 ± 0.66
CAUUAGCAAUAUUACGUUAU	–	-4.44 ± 0.74
GUUUAGCAAUAUUACGAACC	–	-1.55 ± 1.2
CAAUAGCAAUAUUACGUAAA	-2.27 ± 0.4	-2.68 ± 0.28
AGGGAGCAAUAUUACGGACG	-1.84 ± 0.52	-3.21 ± 1.1
CACCAGCAAUAUUACGAGAC	–	-4.55 ± 0.59
AUGUAGCAAUAUUACGCAAU	-1.01 ± 0.23	-1.49 ± 0.13
CUCUAGCAAUAUUACGAUUC	-3.87 ± 0.72	-4.29 ± 1.1
CGAGAGCAAUAUUACGGAGA	-3.07 ± 1	–
UCAGAGCAAUAUUACGCUCA	-1.2 ± 0.51	-3.63 ± 1
AACGAGCAAUAUUACGCAGC	-2.59 ± 0.76	–
GCGGAGCAAUAUUACGGCAA	–	-3.97 ± 0.59
UCAUAGCAAUAUUACGGUUA	-0.36 ± 0.11	-1.37 ± 0.14
GGUGAGCAAUAUUACGCGCC	-0.795 ± 0.53	-2.97 ± 0.77
CCGCAGCAAUAUUACGUAGC	–	-4.93 ± 1
CCUGAGCAAUAUUACGCCCG	-2.79 ± 1.1	–
GUCGAGCAAUAUUACGAGAA	-1.87 ± 0.52	-1.97 ± 1.2
AACGAGCAAUAUUACGGCAG	–	-4.19 ± 1
GAGUAGCAAUAUUACGUCGG	-2.26 ± 0.55	–
CCAUAGCAAUAUUACGCAGC	–	-4.03 ± 0.51

Sequence	self-splicing fitness (ln) (37 °C)	self-splicing fitness (ln) (30 °C)
UCGGAGCAAUAUUACGUAUG	1.95 ± 0.73	-2.21 ± 1.1
GAUUAGCAAUAUUACGCCGA	-0.323 ± 0.62	–
GGAUAGCAAUAUUACGCUCU	-2.3 ± 1.1	–
GCAUAGCAAUAUUACGCCGA	–	-4.01 ± 0.53
CCUGAGCAAUAUUACGCAUC	-3.53 ± 0.52	–
UGUAAGCAAUAUUACGCUAC	-3.08 ± 0.61	–
UAUCAGCAAUAUUACGGUGG	-0.377 ± 0.088	-1.2 ± 0.077
GGGAAGCAAUAUUACGCCGC	-1.69 ± 1.2	-3.18 ± 0.74
UUUUAGCAAUAUUACGGCCC	–	-1.81 ± 0.68
CUAUAGCAAUAUUACGGCUU	-2.86 ± 0.61	-3.75 ± 0.61
GUUUAGCAAUAUUACGAAUC	–	1.34 ± 1.1
UGCUAGCAAUAUUACGUAAG	-1.35 ± 0.18	-2.3 ± 0.19
GAGCAGCAAUAUUACGAUAC	-1.45 ± 0.15	-1.61 ± 0.12
GGAAAGCAAUAUUACGCUGC	-2.67 ± 0.76	–
UAUAAGCAAUAUUACGGGGC	-3.08 ± 0.61	–
GUCAAGCAAUAUUACGGCUG	-3.53 ± 0.52	–
GUGUAGCAAUAUUACGGAGA	–	-4.16 ± 1
ACUCAGCAAUAUUACGAUUC	-0.302 ± 0.1	-1.63 ± 0.087
UAAGAGCAAUAUUACGGGCG	-2.29 ± 0.19	-2.73 ± 0.16
AAAGAGCAAUAUUACGAUAC	–	-3.12 ± 1.1
UCUGAGCAAUAUUACGAUGC	–	-3.21 ± 0.76
UGGCAGCAAUAUUACGCAGC	–	-4.05 ± 1
AUUGAGCAAUAUUACGAUGA	–	-4.47 ± 0.72
AGUUAGCAAUAUUACGAGAA	-1.54 ± 0.82	-2.47 ± 1.1

Sequence	self-splicing fitness (ln) (37 °C)	self-splicing fitness (ln) (30 °C)
UUAGAGCAAUAUUACGCUCC	-3.13 ± 0.6	-3.97 ± 0.52
UUGUAGCAAUAUUACGGCCC	–	0.255 ± 0.82
CCCCAGCAAUAUUACGAGAG	-2.05 ± 0.17	-3.91 ± 0.23
UUUAAGCAAUAUUACGGAAC	-1.78 ± 0.56	–
UAGAAGCAAUAUUACGGAAC	-2.51 ± 0.62	-1.25 ± 0.34
GUCUAGCAAUAUUACGCGUC	-0.0852 ± 0.1	-2.18 ± 0.099
GGAGAGCAAUAUUACGAGCU	2.06 ± 0.73	-1.52 ± 1.2
CCGGAGCAAUAUUACGCAAU	-2.27 ± 0.56	–
GCGUAGCAAUAUUACGUUGC	-1.77 ± 0.53	-2.42 ± 0.59
GCGGAGCAAUAUUACGGAGG	-1.54 ± 1.2	–
CUAGAGCAAUAUUACGAGCA	–	-4.76 ± 0.51
UGAGAGCAAUAUUACGAGCC	-0.914 ± 0.63	–
UUGGAGCAAUAUUACGACGC	–	-2.42 ± 0.82
CGGCAGCAAUAUUACGAAGC	-2.39 ± 0.77	-3.28 ± 0.55
GGGGAGCAAUAUUACGUUCC	–	-4.49 ± 1
AGACAGCAAUAUUACGAAAA	–	-3.23 ± 0.52
CGGUAGCAAUAUUACGCAAA	–	-3.95 ± 0.61
GUGGAGCAAUAUUACGGACU	-0.95 ± 0.77	-0.699 ± 0.9
AAGCAGCAAUAUUACGUGCG	-0.0742 ± 0.092	-0.989 ± 0.073
CGUAAGCAAUAUUACGCGUU	-2.31 ± 0.32	-3.69 ± 0.36
UUCCAGCAAUAUUACGUGGC	-3.15 ± 0.24	-3.11 ± 0.15
GUUCAGCAAUAUUACGUCCU	0.279 ± 0.17	-0.606 ± 0.14
CUCGAGCAAUAUUACGCUCC	-1.5 ± 0.88	-3.16 ± 1
UUCGAGCAAUAUUACGCUAU	-3.4 ± 1	–

Sequence	self-splicing fitness (ln) (37 °C)	self-splicing fitness (ln) (30 °C)
UGUGAGCAAUAUUACGUGGC	–	-3 ± 0.63
AGCUAGCAAUAUUACGCCCG	–	-2.95 ± 1.1
CGCGAGCAAUAUUACGACGC	-1.43 ± 0.87	–
AAGGAGCAAUAUUACGGUCG	-3.3 ± 0.52	–
UCAGAGCAAUAUUACGCGUA	-0.569 ± 0.16	-2.57 ± 0.32
UACUAGCAAUAUUACGAUGC	-2.54 ± 0.3	-4.22 ± 0.26
GUAUAGCAAUAUUACGCAGU	–	-3.27 ± 0.76
CUACAGCAAUAUUACGAACC	-2.02 ± 0.67	-3.4 ± 0.75
CUAUAGCAAUAUUACGUAUU	-3.25 ± 0.52	–
UUAAAGCAAUAUUACGAGGC	-2.36 ± 0.29	-3.94 ± 0.37
UUGUAGCAAUAUUACGGAAC	–	-2.7 ± 0.63
CAGUAGCAAUAUUACGCUGU	-2.99 ± 0.28	-2.72 ± 0.17
CUGGAGCAAUAUUACGGGCA	-0.595 ± 0.71	–
UGAGAGCAAUAUUACGCGGG	-1.98 ± 0.66	-3.19 ± 1.2
AAUGAGCAAUAUUACGUGCC	-2.4 ± 0.55	–
UAGGAGCAAUAUUACGUCUC	-2.28 ± 0.63	–
CGACAGCAAUAUUACGUAAC	-2.03 ± 0.31	-4.37 ± 0.23
UCUAAGCAAUAUUACGAAAA	–	-2.82 ± 0.55
GGAUAGCAAUAUUACGCUAU	–	-2.42 ± 0.59
AACGAGCAAUAUUACGAGCC	-1.92 ± 0.64	-3.68 ± 0.6
CGGGAGCAAUAUUACGCAUU	-2.92 ± 0.75	-4.3 ± 0.59
GGGCAGCAAUAUUACGGCCU	-2.22 ± 0.55	-4.59 ± 0.72
UAACAGCAAUAUUACGUACC	-1.7 ± 0.24	-0.513 ± 0.19
CUGCAGCAAUAUUACGCACC	-0.458 ± 0.68	-2.53 ± 0.77

4 entries from above, field by field:
UGUGAGCAAUAUUACGUGGC
  self-splicing fitness (ln) (30 °C): -3 ± 0.63
CUACAGCAAUAUUACGAACC
  self-splicing fitness (ln) (37 °C): -2.02 ± 0.67
  self-splicing fitness (ln) (30 °C): -3.4 ± 0.75
UUAAAGCAAUAUUACGAGGC
  self-splicing fitness (ln) (37 °C): -2.36 ± 0.29
  self-splicing fitness (ln) (30 °C): -3.94 ± 0.37
AAUGAGCAAUAUUACGUGCC
  self-splicing fitness (ln) (37 °C): -2.4 ± 0.55

(cont.)

Sequence	self-splicing fitness (ln) (37 °C)	self-splicing fitness (ln) (30 °C)
AACGAGCAAUAUUACGUCCC	-0.853 ± 0.67	-4.35 ± 1
UAUGAGCAAUAUUACGAGGA	–	-4.01 ± 0.73
UCUAAGCAAUAUUACGGCAA	-1.22 ± 0.21	-1.94 ± 0.34
CUAUAGCAAUAUUACGUCCC	-1.78 ± 1.2	-2.49 ± 0.73
ACCGAGCAAUAUUACGCCAC	-0.987 ± 0.57	–
AGCUAGCAAUAUUACGACCC	-0.711 ± 0.51	-0.116 ± 0.54
GGAAAGCAAUAUUACGAGGC	-1.94 ± 0.79	-4.21 ± 1
UUUCAGCAAUAUUACGUUUC	–	-3.8 ± 0.52
CACGAGCAAUAUUACGCCCA	-1.72 ± 0.28	-1.81 ± 0.4
AAUGAGCAAUAUUACGAAGC	-1.89 ± 0.43	-3.08 ± 0.35
AGAGAGCAAUAUUACGCGCU	-0.983 ± 0.68	–
GGACAGCAAUAUUACGCUUU	-0.538 ± 0.087	-1.39 ± 0.065
CUAUAGCAAUAUUACGUCUU	-2.76 ± 0.23	-4.3 ± 0.32
CUUAAGCAAUAUUACGGACA	-1.62 ± 0.7	-3.61 ± 0.52
UUUUAGCAAUAUUACGCCAC	-0.504 ± 0.71	-2.62 ± 0.87
UUGUAGCAAUAUUACGAAGC	-2.77 ± 1.1	–
GAGGAGCAAUAUUACGCAAA	-0.234 ± 1	–
CCGAAGCAAUAUUACGCAGU	-1.69 ± 0.67	–
GGGGAGCAAUAUUACGCAAU	–	-2.37 ± 0.56
GGAUAGCAAUAUUACGCGGC	-2.98 ± 0.53	-3.57 ± 1
